For at least one entry, the source does not settle the construct or the ends of the probe. For part of these data: Where a protein sequence is shown, tags need not be part of it.
Key:
Assay in all cases: human ORF protein microarray
[1] = target: T1, TMEM109 (Homo sapiens) (UniProt Q9BVC6); conditions: 5' phosphate; Domain array: 20 mM Tris-HCl pH 7.4, 200 mM KCl, 0.2 mM EDTA, 0.05% NP40, 2 ug/ul heparin, overnight 4 C. ORF array: PBS pH 7.0 with RNase inhibitor, 100 ng RNA, 1 h.; recombinant protein; protein details: N-terminal GST-6xHis; label: internal DY647 at G18; letters put together from the description
T1 sequence (looked up, limits assumed): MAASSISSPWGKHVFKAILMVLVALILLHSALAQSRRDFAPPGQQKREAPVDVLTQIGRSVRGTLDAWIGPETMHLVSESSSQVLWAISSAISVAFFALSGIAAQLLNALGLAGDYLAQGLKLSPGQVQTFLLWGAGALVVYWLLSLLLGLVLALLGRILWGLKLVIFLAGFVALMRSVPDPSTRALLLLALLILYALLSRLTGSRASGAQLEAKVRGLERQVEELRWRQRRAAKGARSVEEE

[2] = target: VPRBP (Homo sapiens) (UniProt Q9Y4B6); conditions: 5' phosphate; Domain array: 20 mM Tris-HCl pH 7.4, 200 mM KCl, 0.2 mM EDTA, 0.05% NP40, 2 ug/ul heparin, overnight 4 C. ORF array: PBS pH 7.0 with RNase inhibitor, 100 ng RNA, 1 h.; recombinant protein; protein details: N-terminal GST-6xHis; label: internal DY647 at G18; letters put together from the description
[3] = target: T2, SPRY1 (Homo sapiens) (UniProt O43609); conditions: 5' phosphate; Domain array: 20 mM Tris-HCl pH 7.4, 200 mM KCl, 0.2 mM EDTA, 0.05% NP40, 2 ug/ul heparin, overnight 4 C. ORF array: PBS pH 7.0 with RNase inhibitor, 100 ng RNA, 1 h.; recombinant protein; protein details: N-terminal GST-6xHis; label: internal DY647 at G18; letters put together from the description
T2 sequence (looked up, limits assumed): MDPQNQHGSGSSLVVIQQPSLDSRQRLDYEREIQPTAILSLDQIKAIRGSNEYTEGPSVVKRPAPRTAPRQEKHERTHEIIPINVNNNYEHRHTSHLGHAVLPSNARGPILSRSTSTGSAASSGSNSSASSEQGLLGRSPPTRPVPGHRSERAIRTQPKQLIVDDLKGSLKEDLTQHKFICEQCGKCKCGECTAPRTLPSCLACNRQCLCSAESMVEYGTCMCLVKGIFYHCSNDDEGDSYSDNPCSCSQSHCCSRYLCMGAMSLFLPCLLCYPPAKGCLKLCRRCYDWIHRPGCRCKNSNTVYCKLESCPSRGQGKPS

[4] = target: T3, CCR3 (Homo sapiens) (UniProt P51677); conditions: 5' phosphate; Domain array: 20 mM Tris-HCl pH 7.4, 200 mM KCl, 0.2 mM EDTA, 0.05% NP40, 2 ug/ul heparin, overnight 4 C. ORF array: PBS pH 7.0 with RNase inhibitor, 100 ng RNA, 1 h.; recombinant protein; protein details: N-terminal GST-6xHis; label: internal DY647 at G18; letters put together from the description
T3 sequence (looked up, limits assumed): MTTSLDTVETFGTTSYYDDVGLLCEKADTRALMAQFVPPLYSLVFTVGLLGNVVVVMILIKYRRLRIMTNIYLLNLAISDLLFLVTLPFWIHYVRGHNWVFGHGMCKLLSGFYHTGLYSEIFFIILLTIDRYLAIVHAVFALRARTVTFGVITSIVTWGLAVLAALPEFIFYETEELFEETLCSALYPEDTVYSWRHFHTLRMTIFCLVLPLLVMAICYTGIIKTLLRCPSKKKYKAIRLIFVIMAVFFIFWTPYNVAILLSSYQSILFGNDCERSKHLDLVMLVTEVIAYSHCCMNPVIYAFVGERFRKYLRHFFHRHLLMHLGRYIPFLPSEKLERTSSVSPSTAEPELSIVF

[5] = target: SPHK1 (Homo sapiens) (UniProt Q9NYA1); conditions: 5' phosphate; Domain array: 20 mM Tris-HCl pH 7.4, 200 mM KCl, 0.2 mM EDTA, 0.05% NP40, 2 ug/ul heparin, overnight 4 C. ORF array: PBS pH 7.0 with RNase inhibitor, 100 ng RNA, 1 h.; recombinant protein; protein details: N-terminal GST-6xHis; label: internal DY647 at G18; letters put together from the description
[6] = target: DSCR1L1 (Homo sapiens) (UniProt Q14206); conditions: 5' phosphate; amino-C6 U at position 18; Domain array: 20 mM Tris-HCl pH 7.4, 200 mM KCl, 0.2 mM EDTA, 0.05% NP40, 2 ug/ul heparin, overnight 4 C. ORF array: PBS pH 7.0 with RNase inhibitor, 100 ng RNA, 1 h.; recombinant protein; protein details: N-terminal GST-6xHis; label: internal Cy5 or DY647
[7] = target: T4, OR5D14 (Homo sapiens) (UniProt Q8NGL3); conditions: 5' phosphate; amino-C6 U at position 18; Domain array: 20 mM Tris-HCl pH 7.4, 200 mM KCl, 0.2 mM EDTA, 0.05% NP40, 2 ug/ul heparin, overnight 4 C. ORF array: PBS pH 7.0 with RNase inhibitor, 100 ng RNA, 1 h.; recombinant protein; protein details: N-terminal GST-6xHis; label: internal Cy5 or DY647
T4 sequence (looked up, limits assumed): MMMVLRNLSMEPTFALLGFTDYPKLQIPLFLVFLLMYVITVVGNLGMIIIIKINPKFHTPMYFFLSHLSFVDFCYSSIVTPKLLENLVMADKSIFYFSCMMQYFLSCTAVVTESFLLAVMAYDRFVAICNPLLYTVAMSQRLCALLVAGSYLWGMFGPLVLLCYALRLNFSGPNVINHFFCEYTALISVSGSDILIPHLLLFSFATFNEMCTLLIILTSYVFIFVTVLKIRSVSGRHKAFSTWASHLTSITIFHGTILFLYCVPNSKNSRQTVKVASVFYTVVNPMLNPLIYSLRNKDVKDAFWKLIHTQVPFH

[8] = target: WDR45L (Homo sapiens) (UniProt Q5MNZ6); conditions: 5' phosphate; amino-C6 U at position 18; Domain array: 20 mM Tris-HCl pH 7.4, 200 mM KCl, 0.2 mM EDTA, 0.05% NP40, 2 ug/ul heparin, overnight 4 C. ORF array: PBS pH 7.0 with RNase inhibitor, 100 ng RNA, 1 h.; recombinant protein; protein details: N-terminal GST-6xHis; label: internal Cy5 or DY647
[9] = target: T5, KLHL6 (Homo sapiens) (UniProt Q8WZ60); conditions: 5' phosphate; amino-C6 U at position 18; Domain array: 20 mM Tris-HCl pH 7.4, 200 mM KCl, 0.2 mM EDTA, 0.05% NP40, 2 ug/ul heparin, overnight 4 C. ORF array: PBS pH 7.0 with RNase inhibitor, 100 ng RNA, 1 h.; recombinant protein; protein details: N-terminal GST-6xHis; label: internal Cy5 or DY647
T5 sequence (looked up, limits assumed): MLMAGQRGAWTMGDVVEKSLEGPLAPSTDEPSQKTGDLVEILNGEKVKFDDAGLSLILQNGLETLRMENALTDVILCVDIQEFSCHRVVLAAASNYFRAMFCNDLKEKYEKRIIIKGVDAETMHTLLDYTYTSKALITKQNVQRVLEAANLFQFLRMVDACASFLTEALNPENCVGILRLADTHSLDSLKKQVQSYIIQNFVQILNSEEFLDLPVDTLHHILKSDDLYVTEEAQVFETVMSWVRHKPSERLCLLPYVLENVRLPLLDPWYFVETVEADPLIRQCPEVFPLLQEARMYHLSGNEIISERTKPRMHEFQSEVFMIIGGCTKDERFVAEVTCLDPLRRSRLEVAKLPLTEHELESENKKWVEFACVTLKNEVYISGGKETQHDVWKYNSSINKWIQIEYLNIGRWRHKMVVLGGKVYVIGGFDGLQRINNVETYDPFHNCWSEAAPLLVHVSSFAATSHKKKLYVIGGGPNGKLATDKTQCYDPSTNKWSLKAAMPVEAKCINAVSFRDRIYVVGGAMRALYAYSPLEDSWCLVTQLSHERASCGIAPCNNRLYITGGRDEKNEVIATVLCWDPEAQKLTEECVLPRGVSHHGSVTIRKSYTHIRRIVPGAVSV

[10] = target: T6, EDN3 (Homo sapiens) (UniProt P14138); conditions: 5' phosphate; amino-C6 U at position 18; Domain array: 20 mM Tris-HCl pH 7.4, 200 mM KCl, 0.2 mM EDTA, 0.05% NP40, 2 ug/ul heparin, overnight 4 C. ORF array: PBS pH 7.0 with RNase inhibitor, 100 ng RNA, 1 h.; recombinant protein; protein details: N-terminal GST-6xHis; label: internal Cy5 or DY647
T6 sequence (looked up, limits assumed): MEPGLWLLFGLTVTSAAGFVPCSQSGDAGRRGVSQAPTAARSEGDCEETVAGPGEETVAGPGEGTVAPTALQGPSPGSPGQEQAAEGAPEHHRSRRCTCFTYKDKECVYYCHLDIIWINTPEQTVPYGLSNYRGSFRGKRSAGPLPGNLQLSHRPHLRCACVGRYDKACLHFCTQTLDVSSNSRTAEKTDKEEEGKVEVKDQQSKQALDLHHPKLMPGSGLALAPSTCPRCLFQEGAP

[11] = target: KCNK10 (Homo sapiens) (UniProt P57789); conditions: 5' phosphate; amino-C6 U at position 18; Domain array: 20 mM Tris-HCl pH 7.4, 200 mM KCl, 0.2 mM EDTA, 0.05% NP40, 2 ug/ul heparin, overnight 4 C. ORF array: PBS pH 7.0 with RNase inhibitor, 100 ng RNA, 1 h.; recombinant protein; protein details: N-terminal GST-6xHis; label: internal Cy5 or DY647
[12] = target: CYCS (Homo sapiens) (UniProt P99999); conditions: 5' phosphate; amino-C6 U at position 18; Domain array: 20 mM Tris-HCl pH 7.4, 200 mM KCl, 0.2 mM EDTA, 0.05% NP40, 2 ug/ul heparin, overnight 4 C. ORF array: PBS pH 7.0 with RNase inhibitor, 100 ng RNA, 1 h.; recombinant protein; protein details: N-terminal GST-6xHis; label: internal Cy5 or DY647

Measured: binding result

CAGUGCAAUGAUGAAAGGGCAU [miR-130b (internal labeling)]
binds: [1] | [2]

UAGCUUAUCAGACUGAUGUUGA [miR-21 (internal labeling)]
binds: [3] | [4] | [5]

UGAGGUAGUAGGUUGUGUGGUU [let-7b (internal labeling)]
binds: [6] | [7] | [8] | [9] | [10] | [11] | [12]
